{
  "source": "paper PMC5996148",
  "test_in_all_cases": "protein microarray (ProtoArray v5.0), streptavidin-Alexa Fluor 647",
  "details_in_all_cases": "3'-biotin; 20 mM Tris (pH 7.5), 5 mM MgCl2, 100 mM KCl, 0.1% Tween-20, A/T-rich and random oligonucleotide blockers; temperature not stated; high values mean tight binding",
  "key": {"[1]": {"system": "Calcium-activated potassium channel subunit beta-3 (human)"}, "[2]": {"system": "Calcium-binding protein 39-like (human)"}, "[3]": {"system": "Calcium-transporting ATPase type 2C member 1 (human)"}, "[4]": {"system": "Calcium/calmodulin-dependent protein kinase type 1 (human)"}, "Calpastatin (human)": {"system": "Calpastatin (human)"}, "Calretinin (human)": {"system": "Calretinin (human)"}, "[5]": {"system": "Carbonic anhydrase 3 (human)"}, "[6]": {"system": "Carboxypeptidase A1 (human)"}, "[7]": {"system": "Carboxypeptidase A2 (human)"}, "[8]": {"system": "Caspase recruitment domain-containing protein 14 (human)"}, "[9]": {"system": "Caspase recruitment domain-containing protein 9 (human)"}, "[10]": {"system": "Caspase-1 inhibitor INCA (human)"}, "Cathepsin Z (human)": {"system": "Cathepsin Z (human)"}, "[11]": {"system": "Cation transport regulator-like protein 2 (human)"}, "[12]": {"system": "Cbp/p300-interacting transactivator 1 (human)"}, "[13]": {"system": "Cell differentiation protein RCD1 homolog (human)"}, "[14]": {"system": "Cell growth regulator with RING finger domain protein 1 (human)"}, "[15]": {"system": "Centromere protein L (human)"}, "[16]": {"system": "Centromere protein Q (human)"}, "[17]": {"system": "Centromere protein T (human)"}},
  "note": "Where “and” joins values, the source holds several entries; their conditions need not be identical. Identical values can stand only once. The list shows a part of the results.",
  "data": [
    {"sequence": "GGGAGGCTGAGGCAGG [G4-1 biotinylated (PQS2)]", "values": [
      {"measurement": "binding signal", "setting": "[1]", "result": -0.288, "unit": "z-score"},
      {"measurement": "binding signal", "setting": "[2]", "result": -0.355, "unit": "z-score"},
      {"measurement": "binding signal", "setting": "[3]", "result": -0.324, "unit": "z-score"},
      {"measurement": "binding signal", "setting": "[4]", "result": -0.36, "unit": "z-score"},
      {"measurement": "binding signal", "setting": "Calpastatin (human)", "result": -0.339, "unit": "z-score"},
      {"measurement": "binding signal", "setting": "Calretinin (human)", "result": -0.337, "unit": "z-score"},
      {"measurement": "binding signal", "setting": "[5]", "result": -0.339, "unit": "z-score"},
      {"measurement": "binding signal", "setting": "[6]", "result": -0.324, "unit": "z-score"},
      {"measurement": "binding signal", "setting": "[7]", "result": -0.319, "unit": "z-score"},
      {"measurement": "binding signal", "setting": "[8]", "result": -0.334, "unit": "z-score"},
      {"measurement": "binding signal", "setting": "[9]", "result": "-0.336 z-score and -0.351 z-score"},
      {"measurement": "binding signal", "setting": "[10]", "result": -0.291, "unit": "z-score"},
      {"measurement": "binding signal", "setting": "Cathepsin Z (human)", "result": -0.331, "unit": "z-score"},
      {"measurement": "binding signal", "setting": "[11]", "result": "-0.315 z-score and -0.306 z-score"},
      {"measurement": "binding signal", "setting": "[12]", "result": -0.323, "unit": "z-score"},
      {"measurement": "binding signal", "setting": "[13]", "result": -0.345, "unit": "z-score"},
      {"measurement": "binding signal", "setting": "[14]", "result": -0.302, "unit": "z-score"},
      {"measurement": "binding signal", "setting": "[15]", "result": -0.284, "unit": "z-score"},
      {"measurement": "binding signal", "setting": "[16]", "result": -0.376, "unit": "z-score"},
      {"measurement": "binding signal", "setting": "[17]", "result": -0.253, "unit": "z-score"}
    ]}
  ]
}
